This passage reports binding results from paper PMC4376871.

Experiment [1] concerns the target T1, Arabidopsis SHAGGY-like protein kinase AtSK21 fused to the GAL4 DNA binding domain (Arabidopsis thaliana (ecotype Sei-0 cDNA)) (UniProt Q39011).
T1 sequence: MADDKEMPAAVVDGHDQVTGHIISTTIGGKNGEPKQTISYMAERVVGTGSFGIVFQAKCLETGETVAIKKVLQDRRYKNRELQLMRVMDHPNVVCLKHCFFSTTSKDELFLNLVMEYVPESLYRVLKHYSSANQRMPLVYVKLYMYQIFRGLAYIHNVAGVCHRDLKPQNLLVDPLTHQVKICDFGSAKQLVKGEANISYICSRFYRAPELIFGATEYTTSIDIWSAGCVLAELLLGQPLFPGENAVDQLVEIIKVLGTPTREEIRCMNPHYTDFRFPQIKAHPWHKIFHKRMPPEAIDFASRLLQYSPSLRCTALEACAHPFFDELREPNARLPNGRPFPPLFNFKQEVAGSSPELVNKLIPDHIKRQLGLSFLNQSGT
Briefly: two-hybrid; yeast Y187; C4 or C4 mutants on AD, AtSKs on DBD; quantitative ß-galactosidase activity (Galacto-Star, chemiluminescence) relative to the C4/AtSK23 interaction.

The target of experiment [2] is T2, Arabidopsis SHAGGY-like protein kinase AtSK22 fused to the GAL4 DNA binding domain (Arabidopsis thaliana (ecotype Sei-0 cDNA)) (UniProt Q39012).
T2 sequence: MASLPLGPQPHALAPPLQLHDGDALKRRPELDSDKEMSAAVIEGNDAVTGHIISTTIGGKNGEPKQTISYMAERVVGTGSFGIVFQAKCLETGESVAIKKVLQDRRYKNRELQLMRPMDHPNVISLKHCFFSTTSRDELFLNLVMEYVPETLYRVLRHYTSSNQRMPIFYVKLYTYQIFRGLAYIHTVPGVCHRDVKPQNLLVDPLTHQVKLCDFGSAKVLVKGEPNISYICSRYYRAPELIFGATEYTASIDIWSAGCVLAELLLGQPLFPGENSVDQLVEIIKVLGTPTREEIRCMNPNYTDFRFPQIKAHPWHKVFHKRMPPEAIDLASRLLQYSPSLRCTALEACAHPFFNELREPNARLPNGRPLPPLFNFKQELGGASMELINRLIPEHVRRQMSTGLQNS
The experiment is described as above.

Experiment [3] concerns the target T3, Arabidopsis SHAGGY-like protein kinase AtSK23 fused to the GAL4 DNA binding domain (Arabidopsis thaliana (ecotype Sei-0 cDNA)) (UniProt Q39010).
T3 sequence: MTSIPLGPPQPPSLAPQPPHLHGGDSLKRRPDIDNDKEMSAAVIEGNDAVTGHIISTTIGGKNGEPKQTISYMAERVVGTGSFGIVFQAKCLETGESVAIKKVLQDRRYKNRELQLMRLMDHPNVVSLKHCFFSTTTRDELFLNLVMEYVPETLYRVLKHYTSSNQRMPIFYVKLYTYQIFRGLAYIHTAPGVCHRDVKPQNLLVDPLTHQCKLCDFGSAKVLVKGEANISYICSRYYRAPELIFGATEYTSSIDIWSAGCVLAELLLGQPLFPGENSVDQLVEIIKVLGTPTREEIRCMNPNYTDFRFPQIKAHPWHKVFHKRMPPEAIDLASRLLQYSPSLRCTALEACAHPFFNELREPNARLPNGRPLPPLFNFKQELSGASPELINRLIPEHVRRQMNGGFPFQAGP
The experiment is described as above.

Experiment [4] addresses T4, AtSK21 fused at its C-terminus to the N-terminal portion of EYFP (Arabidopsis thaliana (ecotype Sei-0 cDNA)) (UniProt Q39011).
T4 sequence: T1 sequence
Briefly: split reporter; BiFC with cEYFP and nEYFP fusions co-agroinfiltrated into leaves of transgenic N. benthamiana CFP-H2B; confocal microscopy 48 h after infiltration.

Experiment [5] deals with T5, AtSK22 fused at its C-terminus to the N-terminal portion of EYFP (Arabidopsis thaliana (ecotype Sei-0 cDNA)) (UniProt Q39012).
T5 sequence: T2 sequence
The description is as above.

In experiment [6] the target is T6, AtSK23 fused at its C-terminus to the N-terminal portion of EYFP (Arabidopsis thaliana (ecotype Sei-0 cDNA)) (UniProt Q39010).
T6 sequence: T3 sequence
The experiment is described as above.

Experiment [7] addresses T7, AtSK41 fused at its C-terminus to the N-terminal portion of EYFP (Arabidopsis thaliana (ecotype Sei-0 cDNA)) (UniProt Q39019).
T7 sequence: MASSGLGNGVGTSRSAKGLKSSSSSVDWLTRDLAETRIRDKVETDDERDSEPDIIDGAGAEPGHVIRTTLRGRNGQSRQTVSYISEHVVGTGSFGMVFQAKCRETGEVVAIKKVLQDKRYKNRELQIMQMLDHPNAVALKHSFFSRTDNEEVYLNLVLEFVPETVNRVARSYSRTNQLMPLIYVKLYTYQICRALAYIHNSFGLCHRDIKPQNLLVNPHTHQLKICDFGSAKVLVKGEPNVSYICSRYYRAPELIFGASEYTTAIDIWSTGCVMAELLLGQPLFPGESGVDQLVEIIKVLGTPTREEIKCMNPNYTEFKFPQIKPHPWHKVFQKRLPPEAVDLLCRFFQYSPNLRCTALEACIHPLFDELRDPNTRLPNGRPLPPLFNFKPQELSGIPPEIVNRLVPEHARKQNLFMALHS
Described as above.

Experiment [8] deals with T8, Kinase-dead AtSK21K69R fused to the N-terminal portion of EYFP (Arabidopsis thaliana (ecotype Sei-0 cDNA)) (UniProt Q39011).
T8 sequence: T1 sequence with K69R
The experiment is described as above.

Experiment [9] has as its target T9, Kinase-dead AtSK23K101R fused to the N-terminal portion of EYFP (Arabidopsis thaliana (ecotype Sei-0 cDNA)) (UniProt Q39010).
T9 sequence: T3 sequence with K101R
Described as above.

Positions count from the first letter of the chain named. These are yes or no findings as the source states them, for the method shown. For some of these results: Binding can be weak; no strength is given. Tags and fused reporters may be left off the sequences shown. For some of these results: Binding seen in cells or lysates may run through a third protein.

As to “BCTV C4 S49A mutant fused to the GAL4 activation domain”, the binding entry in experiment [1], in experiment [2] and in experiment [3] was “no binding” in each case.
Take “BCTV C4 protein fused at its C-terminus to the C-terminal portion of EYFP”: the binding entry in [4] is on record as “binds”; in experiment [5] it was “binds”; in experiment [6], “binds”; in experiment [7], “no binding”; in experiment [8], “no binding”; in [9], “binds weakly”.
“BCTV C4 A49T reversion mutant (Thr at position 49) fused to the GAL4 activation domain”: the binding entry in experiment [1], in experiment [2] and in [3] was “binds” each time.
With “BCTV C4 G2A N-myristoylation site mutant fused to the GAL4 activation domain”, in experiment [3], the binding result was “binds”.
On to “BCTV C4 S49A mutant fused at its C-terminus to the C-terminal portion of EYFP”, for which the binding result in experiment [4], in experiment [5] and in experiment [6] was “no binding” each time.
For the substance “BCTV C4 A49T reversion mutant fused at its C-terminus to the C-terminal portion of EYFP”, the binding entry in [4], in experiment [5] and in [6] was “binds” in each case.
